Assay results taken from PubChem BioAssay AID1662 (Broad Institute, 2009).
Out of some 300,000 compounds screened, about 4,000 (1.3%) were called active. The shares of active, inactive and inconclusive entries below differ from those in the screen.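 Rule for the calls: active = mean replicate score, as percent of positive control median, at least 50; inconclusive = mean below 50 but one replicate at or above 50; inactive = mean and every replicate below 50.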

Test: kanamycin survival loss of SKKanGAS strain – BacTiter-Glo luminescence, streptokinase expression inhibitor project, primary screen (AID 1662);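 note: strain carries kanamycin resistance gene driven by streptokinase promoter and grows in 40 µg/ml kanamycin; loss of luminescence reflects streptokinase promoter inhibition or plain growth inhibition; 0% = median of DMSO wells and 100% = positive control at its reference dose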
Conditions: S. pyogenes SKKanGAS, kanamycin growth, 6 h, at 7.5 µM, stronger effect = higher value

SMILES | inhibition
CCCCCCCN1N=C(C)C(C(=O)c2ccccc2)C1=O (stereo unspecified) | inconclusive: 35.5%
COC(=O)CCN1CCc2cc(N=Nc3ccc([N+](=O)[O-])cc3)ccc21 | inactive: 7.32%
Cc1cccc(C)c1OCC(O)CN1CCC(CN2C(=O)c3cccc4cccc(c34)C2=O)CC1 (stereo unspecified) | inconclusive: 47.4%
Cc1noc(C)c1CSc1nc2ccccc2nc1NS(=O)(=O)c1ccc(Cl)cc1 | inconclusive: 49.3%
CC1CCN(S(=O)(=O)c2ccc(C(=O)Nc3nnc(C4=COCCO4)o3)cc2)CC1 | inconclusive: 28.6%
O=C(CSc1nnc(NC(=O)c2cccc(F)c2)s1)NCC1CCCO1 (stereo unspecified) | inconclusive: 46.9%
COc1cc(/C=C\C(=O)O)cc(S(=O)(=O)N2CCCCCC2)c1OC | inactive: 1.86%
CCCCCCCOC(=O)C[N+](C)(C)CCOC1CC2CCC1(C)C2(C)C (stereo unspecified) | inconclusive: 35.6%
Cc1cccc2nc(CNC(=O)CC3C(=O)NCCN3Cc3cccc(F)c3)cn12 (stereo unspecified) | inactive: -10.3%
Clc1ccc(-c2cn3cccnc3n2)cc1 | inactive: -8.95%
CC(CC(=O)Nc1nc2ccccc2[nH]1)c1ccccc1 (stereo unspecified) | inconclusive: 46.8%
CNC(=O)C(=O)NCC1OCCN1S(=O)(=O)c1ccc(OC)c(OC)c1 (stereo unspecified) | inconclusive: 39.8%
O=Nc1c2cc(-c3ccccc3)[nH]nc-2c2ccccc12 | inconclusive: 43.3%
COc1ccccc1-n1cnc2c(c1=O)c1nc3ccccc3nc1n2-c1ccc(C)c(C)c1 | inconclusive: 41.2%
Nc1nc(SCC(=O)Nc2ccc([N+](=O)[O-])cc2)[nH]c(=O)c1NC(=O)c1ccc(Br)cc1 | inactive: 7.28%
CCOC(=O)c1csc(NC(=O)c2ccc3c(c2)OCCO3)n1 | inconclusive: 45.1%
O=c1[nH]c2c(s1)C=Nc1ccccc1N2 | inconclusive: 32.1%
CC(C)c1ccc(C(=O)NC(=S)Nc2ccc3[nH]c(=O)[nH]c3c2)cc1 | inconclusive: 46.3%
C[C@@H]1NC(=O)[C@H](CCCN=C(N)N)NC(=O)c2cc([N+](=O)[O-])cc(I)c2OCC[C@@H](C(=O)NC(CC(=O)O)C(N)=O)NC1=O (stereo partly specified) | inactive: -0.0346%
O=C1C(=O)c2ccc(-c3ccccc3)cc2-c2ccccc21 | active: 101%
C=CCOC(=O)C1=C(C)NC(C)=C(C(=O)OCC=C)C1c1cn(-c2ccccc2)nc1-c1ccco1 | inactive: -2.04%
O=[N+]([O-])c1ccccc1S(=O)(=O)NCCC1=CCCCC1 | inactive: -5.06%

SMILES | inhibition
COc1ccc(Br)cc1C1N2CC3(C)CN1CC(C)(C2)C3=O (stereo unspecified) | inconclusive: 14%
CCCn1c(=O)c2c(nc3n2CCCN3CCc2ccccc2)n(C)c1=O | inactive: -0.49%
Cc1ccc2cc(CN(Cc3ccc(F)cc3)Cc3nnnn3C3CCCC3)c(=O)[nH]c2c1 | inactive: 3.01%
O=[N+]([O-])c1ccc(O)c(N=Cc2sc3ccccc3c2O)c1 | inconclusive: 46%
COc1ccc(C2=NN(c3nc4ccccc4s3)C(=O)C2)cc1 | inconclusive: 48.9%
CCCCC(CC)CNC(=O)C(=O)C1C(=O)Nc2ccccc21 (stereo unspecified) | inconclusive: 41.5%
COc1c(F)cc2[nH]c3c(c2c1F)CCNC3=O | inactive: -6.19%
COC(=O)c1ccc(N2NC(=O)/C(=C/c3ccc(-c4ccc(Cl)c(C(=O)O)c4)o3)C2=O)cc1 | inactive: -8.36%
CCc1c(C)nc2ncnn2c1N1CCCC(C(=O)NCc2cccs2)C1 (stereo unspecified) | inconclusive: 28.7%
CN1CCN(S(=O)(=O)c2cccc(C(=O)Nc3cc(C(F)(F)F)ccc3N3CCCCC3)c2)CC1 | inactive: -8.62%
COc1ccc(Sc2ccc(NC(=O)c3ccccc3Cl)cc2C#N)cc1 | active: 52.3%
O=C(NCCN1CCOCC1)C(=O)NCC1OCCN1S(=O)(=O)c1ccc(F)cc1 (stereo unspecified) | inconclusive: 47.3%
C/C(=N\NS(=O)(=O)c1ccc(C)cc1)c1ccc(C)o1 | inconclusive: 40.7%
O=C(CN1CCN(c2ccccn2)CC1)Nc1cccc(C(F)(F)F)c1 | inconclusive: 21.4%
CCCc1cc2c(-c3ccccc3)cc(=O)oc2cc1OCc1ccc(C(=O)O)o1 | inconclusive: 40.7%
O=C(NCC1CCN(Cc2ccccc2Cl)CC1)Nc1cccc(Cl)c1 | inconclusive: 45.2%
CCCCN(CC)C(=O)Cn1cnc2ccc(S(=O)(=O)N3CCC(C)CC3)cc2c1=O | inactive: -8.07%
CCC(=C/c1sc2ccc3ccccc3c2[n+]1C)/C=C1\Sc2ccc3ccccc3c2N1C | active: 69.5%
O=c1cc2c(nn1Cc1c(Cl)cccc1Cl)-c1ccccc1CC2 | inconclusive: 49%
Cc1ccc(N=N/C(=C\O)C(=O)c2ccc(Cl)cc2)cc1 | inconclusive: 43.7%
O=C(CN1C(=O)c2cccc3cccc(c23)C1=O)N1CCN(c2ccccn2)CC1 | inactive: -3.83%
CC(C)(C)c1nnc(NC(=O)c2cc(-c3ccccc3)nc3ccccc23)s1 | inconclusive: 45%

SMILES | inhibition
CN(C)C(=O)c1ccc(NC(=O)c2cccnc2)cc1 | inactive: -4.15%
Cc1nc(SCC(=O)c2cc3ccccc3oc2=O)c(C#N)c(-c2cccs2)c1C(=O)Nc1ccccc1 | inconclusive: 48.9%
Cn1c(C(=O)O)c(CC(=O)Nc2ccc(F)cc2F)c2ccccc21 | inactive: 8.92%
O=C(c1ccco1)N1CCN(c2ccc(F)cc2)CC1 | inactive: -3.82%
C=CCn1c(=O)c(C(=O)NCc2ccccc2)c(O)c2ccccc21 | active: 54.5%
Cc1nc(N2CCN(c3ccccc3O)CC2)c2c(-c3ccccc3)csc2n1 | inconclusive: 47%
CCC(C)(C)c1ccc(OCCCC[n+]2cccc(C)c2)c(C(C)(C)CC)c1 | inconclusive: 45.4%
COc1cc(/C=N/NC(=O)c2cc(-c3cccn3C)n[nH]2)cc(OC)c1OC | active: 62.8%
Cc1nc2ccc(Br)cn2c(=O)c1Cl | inconclusive: 13.5%
Cc1nc(N/N=C/c2ccc(O)cc2)c2cnn(-c3ccccc3)c2n1 | inconclusive: 48.7%
CN1C(=O)c2cccc3c(S(=O)(=O)Nc4ccccc4F)ccc1c23 | inactive: 1.83%
CC(C)CC(=O)NC(c1cccs1)c1ccc2cccnc2c1O (stereo unspecified) | inconclusive: 39%
Cc1ccc(N(Cc2ccc(C(=O)Nc3c(C)n(C)n(-c4ccccc4)c3=O)cc2)S(C)(=O)=O)cc1C | inactive: 6.7%
CC(C)c1ccc(/C=N/n2c(-c3ccccc3)n[nH]c2=S)cc1 | inconclusive: 49%
O=C1CN(C(=O)c2cccs2)c2ccccc2N1 | inconclusive: 17%
Oc1[nH]c2ccc(Br)cc2c1N=NC(=S)N1CCOCC1 | active: 89.1%
CCc1c(C2(O)CCCCC2)[nH]c2ccc(C(F)(F)F)cc12 | active: 69%
Cn1cc(C(=O)c2ccc(Cl)cc2Cl)cc1C(=O)N/N=C(\N)COc1cccc(C(F)(F)F)c1 | active: 58.8%
COc1ccc(CCn2c(C)cc3c(c2=O)C(c2ccc4c(c2)OCO4)C(C#N)=C(N)O3)cc1OC (stereo unspecified) | inactive: 20.4%
O=C(Nc1cccc(F)c1)N1CCCCCC1 | inconclusive: 38.7%
Oc1c(Br)cc(/C=N/Nc2ccc(Cl)nn2)cc1Br | inconclusive: 45.5%
CCc1ccc(/C=C2\SC(=S)N(CCCC(=O)Nc3ccc(C(=O)O)cc3)C2=O)cc1 | inconclusive: 49.5%

SMILES | inhibition
O=C(c1cc2cc(F)ccc2[nH]1)N1CCN(Cc2ccc3c(c2)OCO3)CC1 | inactive: 11.1%
CN(Cc1cccs1)C(=O)CCc1ccc(S(=O)(=O)N2CCOCC2)cc1 | inactive: 2.68%
Oc1ccc(/C=N/Nc2nc(-c3ccc(Cl)cc3)cc(C(F)(F)F)n2)cc1 | inconclusive: 49.4%
O=S(=O)(Nc1cccc2c1CCCC2)c1ccc(Cl)cc1 | inconclusive: 32.2%
CN(CCC#N)C(=O)CC1(Cc2ccccc2)CCOC(C)(C)C1 (stereo unspecified) | inactive: -1.85%
O=C(CN1CCSCC1)N/N=C/c1ccc(F)cc1F | inactive: -4.84%
COCCNC(=O)CS(=O)Cc1nc(-c2ccc(OC)cc2)oc1C (stereo unspecified) | inactive: -1.07%
C/C(=N\NC(=O)c1ccc(O)cc1)c1cccc(NC(=O)c2ccccc2C)c1 | inconclusive: 44.5%
NC(=O)CSc1cn(Cc2ccc(F)cc2)c2ccccc12 | inactive: -6.17%
Cc1nn(-c2ccccc2)c2nc(C(Cl)(Cl)Cl)[nH]c(=O)c12 | inconclusive: 47.2%
CCCCCCN(C(=O)CCCCCN1C(=O)NC(c2cccc([N+](=O)[O-])c2)C(C(=O)OCc2ccccc2)=C1C)C(C(=O)NCCCC)c1ccc(OCC(=O)OC)c(C(=O)OC)c1 (stereo unspecified) | inactive: 28%
COc1cccc(CNC(=O)Cn2ncc3c(=O)oc4ccccc4c32)c1 | inactive: 11%
CC1(C)Cc2nc3sc4c(OCc5ccccc5)ncnc4c3cc2CO1 | inconclusive: 37.8%
O=C(NCCCCc1ccccc1)c1ccc(Br)cc1 | inactive: -23.2%
CC(C)(C)c1ccc(S(=O)(=O)N2CCC(c3nc4ccc(Cl)cc4[nH]3)CC2)cc1 | inconclusive: 44%
O=C(CSc1nnc(CNC(=O)c2ccc(F)cc2)o1)NCc1ccccc1 | inconclusive: 44.9%
O=C(CSc1ccc(Br)c2cccc(Cl)c12)Nc1ccc(S(=O)(=O)Nc2nccs2)cc1 | inconclusive: 29.2%
CC1(C)SC[C@H](C(=O)Nc2cccc(Cl)c2)N1C=O | inactive: 4.37%
CCN(c1ccc(C)cc1C)S(=O)(=O)c1nnc(NC(=O)c2ccco2)s1 | inconclusive: 36.6%
O=C(NCCc1ccccn1)c1ccc(OC2CCN(Cc3ccccn3)CC2)cc1 | inconclusive: 43.7%

Pulled by compound from the entries so far (six):
SMILES | inhibition
O=C(NCCc1ccccn1)c1ccc(OC2CCN(Cc3ccccn3)CC2)cc1 | inconclusive: 43.7%
C/C(=N\NC(=O)c1ccc(O)cc1)c1cccc(NC(=O)c2ccccc2C)c1 | inconclusive: 44.5%
CCCCCCN(C(=O)CCCCCN1C(=O)NC(c2cccc([N+](=O)[O-])c2)C(C(=O)OCc2ccccc2)=C1C)C(C(=O)NCCCC)c1ccc(OCC(=O)OC)c(C(=O)OC)c1 (stereo unspecified) | inactive: 28%
CC1(C)SC[C@H](C(=O)Nc2cccc(Cl)c2)N1C=O | inactive: 4.37%
NC(=O)CSc1cn(Cc2ccc(F)cc2)c2ccccc12 | inactive: -6.17%
O=C(CSc1nnc(CNC(=O)c2ccc(F)cc2)o1)NCc1ccccc1 | inconclusive: 44.9%
